Results are given in words; binding and its absence hold for the method and conditions named.
Key:
[1] = target: T1, full-length Smad4 protein (Smad4FL), Q13485; test: native MS; conditions: remark: other sources report otherwise
T1 chain: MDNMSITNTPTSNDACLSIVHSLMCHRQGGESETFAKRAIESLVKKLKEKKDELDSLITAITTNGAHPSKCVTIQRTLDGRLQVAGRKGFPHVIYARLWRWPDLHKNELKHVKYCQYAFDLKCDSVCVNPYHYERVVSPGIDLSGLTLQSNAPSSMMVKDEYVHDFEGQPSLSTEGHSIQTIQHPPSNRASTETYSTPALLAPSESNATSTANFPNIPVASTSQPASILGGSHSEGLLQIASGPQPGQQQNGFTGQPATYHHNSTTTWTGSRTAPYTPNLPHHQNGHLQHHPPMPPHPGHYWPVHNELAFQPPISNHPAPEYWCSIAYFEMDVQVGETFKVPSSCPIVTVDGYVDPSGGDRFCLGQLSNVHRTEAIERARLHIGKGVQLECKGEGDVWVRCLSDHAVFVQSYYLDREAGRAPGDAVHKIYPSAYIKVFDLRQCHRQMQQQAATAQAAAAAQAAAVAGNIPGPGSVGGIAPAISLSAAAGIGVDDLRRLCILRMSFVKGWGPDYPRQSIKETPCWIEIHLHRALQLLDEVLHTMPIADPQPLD

[2] = target: T1, full-length Smad4 protein (Smad4FL), …; test: SAXS with ensemble optimization method; conditions: remark: other sources report otherwise

B1: full-length Smad4 protein (Smad4FL), Q13485 1-552 (protein)
chain: T1 chain
How did the binding [1] turn out when B1 was run?
The binding was “no binding”.

What about the binding [2] of the same binder?
The binding was “no binding”.
